The values that follow come from PubChem BioAssay AID330 (DTP/NCI, 2004).

The list is a part of this screen's results and no random one: it is rich in T/C values a quarter to a half above the control, in often repeated tests (any T/C) and in doses without a T/C. Further doses and runs are listed elsewhere. T/C: endpoint of the treated group in % of that of the vehicle group. Some doses have a count of surviving animals in place of a T/C: the source holds a T/C of zero for them, seemingly a mark for toxic or unscored doses. Some survivor counts are full or nearly so, which does not show that the dose was tolerated: survival well below the control is almost never listed, so the zero probably covers shortened survival too. Survivors were counted at the toxicity check, usually on the fifth day, unless a day is given; later deaths do not show. Schedules are NCI's codes, taken here to give the interval after Q, in days (D) or hours (H), and the number of doses after X. Where survival is the endpoint, the PubChem record calls one and a half times the control and up active, and a quarter to a half above the control has no call in these data; cut-offs in other NCI protocols can differ. Some T/C values are followed by the survivors on the day toxicity was checked, most often the fifth; without a count, all were alive then.

In this test the test system is P388 leukemia ip, CD2F1 mice, survival T/C. The test can be described thus: NCI In Vivo Anticancer Drug Screen. Data for tumor model P388 Leukemia (intraperitoneal) in CD2F1 (CDF1) mice. Conditions: T/C endpoint: median survival time, higher T/C = longer survival.
Setting [1] is: dose: 16.0 mg/kg/injection, schedule: Q01DX001 (ip), vehicle: water.

As to `COC(C(=O)C(O)C(C)O)C1CC2C=C3C=C(OC4CC(OC5CC(O)C(OC)C(C)O5)C(OC(C)=O)C(C)O4)C(C)C(=O)C3=C(O)C2=C(O)C1OC1CC(OC2CC(OC3CC(C)(O)C(O)C(C)O3)C(O)C(C)O2)C(O)C(C)O1` (stereo not given), the T/C is, setting by setting: (dose: 4.0 mg/kg/injection, schedule: Q01DX001 (ip), vehicle: water, evaluated on day 35) 126 % of control; (dose: 4.0 mg/kg/injection, schedule: Q01DX001 (ip), vehicle: water, evaluated on day 45) 134 % of control; (dose: 8.0 mg/kg/injection, schedule: Q01DX001 (ip), vehicle: water) 136 % of control; under setting [1], 145 % of control [4 of 6 alive]. Also, the survivor count by setting is: under setting [1], 0 of 6; (dose: 32.0 mg/kg/injection, schedule: Q01DX001 (ip), vehicle: water) 0 of 6; (dose: 64.0 mg/kg/injection, schedule: Q01DX001 (ip), vehicle: water) 0 of 6.

Consider `NC(=O)/C(N=Nc1ccccc1S(=O)(=O)O)=N/Nc1ccccc1S(=O)(=O)O`, for which, for the setting “dose: 50.0 mg/kg/injection, schedule: Q01DX005 (ip), vehicle: Klucel (hydroxypropylcellulose) (HPC)”, the survivor count is listed as 6 of 6.

Regarding `CCCCCCCC(=O)NC1CC(O[C@H]2C[C@](O)(C(C)=O)Cc3c(O)c4c(c(O)c32)C(=O)c2c(OC)cccc2C4=O)OC(C)C1O` (stereo not given in full), the T/C is 125 % of control (dose: 1.5 mg/kg/injection, schedule: Q01DX009 (ip), vehicle: other); 134 % of control (dose: 3.0 mg/kg/injection, schedule: Q01DX009 (ip), vehicle: other); 141 % of control (dose: 6.0 mg/kg/injection, schedule: Q01DX009 (ip), vehicle: other); 149 % of control (dose: 12.0 mg/kg/injection, schedule: Q01DX009 (ip), vehicle: other); 125 % of control (dose: 16.0 mg/kg/injection, schedule: Q04DX003 (ip), vehicle: other); 129 % of control (dose: 64.0 mg/kg/injection, schedule: Q04DX003 (ip), vehicle: other). The T/C (dose: 200.0 mg/kg/injection, schedule: Q04DX003 (ip), vehicle: other) is 140 % of control.
